# Reference: ChEMBL document CHEMBL1131212, “Synthesis and adrenergic activity of a new series of N-aryl dicyclopropyl ketone oxime ethers: SAR and stereochemical aspects” (J Med Chem, 1998)
# Key:
# Cavia porcellus [1] = species: Cavia porcellus; experiment: Ionotropic effect in electrically driven left atrial preparation (Atria isolated from guinea pig) and is expressed in pA2.; conditions: Cardiac atrium, read-out: pA2 (converted)
# Cavia porcellus [2] = species: Cavia porcellus; experiment: Chronotropic effect studied in right atria isolated from guinea pig and is expressed in pA2.; conditions: read-out: pA2 (converted)
compound,measurement,setting,value
CC(C)NCC(O)COc1cccc2ccccc12 (configuration not stated) [PROPRANOLOL],Kb,Cavia porcellus [1],7.94 nM
same,Kb,Cavia porcellus [2],5.01 nM
